PMC6994221
No constants are given. Whether binding was seen depends on the method and setting. Some entries that bind do so weakly or less than the wild type.

Protein sequences, listed by entry. Tags and fused reporters are not part of them.
UniProt P68106: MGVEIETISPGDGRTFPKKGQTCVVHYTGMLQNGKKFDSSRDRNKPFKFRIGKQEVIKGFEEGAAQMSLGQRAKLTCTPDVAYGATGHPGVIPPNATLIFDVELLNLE

Molecular target: type II ryanodine receptor (RyR2) (rat (endogenous in Wistar rat ventricular myocytes)) (UniProt B0LPN4)
Assay: Western blot of permeabilized myocytes after incubation with the purified protein; saponin-permeabilized rat ventricular myocytes exposed 10 min to 10 µmol/L FKBP12 or FKBP12.6, without or followed by the phosphorylation cocktail; sample buffer added directly to the cells; blot probed with anti-FKBP12; calsequestrin and RyR as loading controls; only the binder purified

Row | binding | Substance
1 | binds | human FKBP12 (from UniProt P62942 1-108)
2 | binds | human FKBP12.6 (from UniProt P68106 1-108)
